From article PMC7819943, “Rice protein-binding microarrays: a tool to detect cis-acting elements near promoter regions in rice”
The list shows a part of the results.

molecular target: T1, OsSMF1 (Oryza sativa, UniProt Q6ZLB0 1-436); assay: protein-binding microarray (RPBM); PBS, 2% BSA, 51.3 ng/ul salmon testes DNA, 50 uM zinc acetate, 200 nM TF, 25 C, 1 h; high values mean tight binding; settings: protein: recombinant; tags: N-terminal polyhistidine and DsRed monomer fusion (pET32a); chain copies: 2; label: CyDye5-dUTP incorporated in the synthesized complementary strand; 3' TTTTT single-stranded linker to array surface; dsDNA, one strand shown
T1 sequence: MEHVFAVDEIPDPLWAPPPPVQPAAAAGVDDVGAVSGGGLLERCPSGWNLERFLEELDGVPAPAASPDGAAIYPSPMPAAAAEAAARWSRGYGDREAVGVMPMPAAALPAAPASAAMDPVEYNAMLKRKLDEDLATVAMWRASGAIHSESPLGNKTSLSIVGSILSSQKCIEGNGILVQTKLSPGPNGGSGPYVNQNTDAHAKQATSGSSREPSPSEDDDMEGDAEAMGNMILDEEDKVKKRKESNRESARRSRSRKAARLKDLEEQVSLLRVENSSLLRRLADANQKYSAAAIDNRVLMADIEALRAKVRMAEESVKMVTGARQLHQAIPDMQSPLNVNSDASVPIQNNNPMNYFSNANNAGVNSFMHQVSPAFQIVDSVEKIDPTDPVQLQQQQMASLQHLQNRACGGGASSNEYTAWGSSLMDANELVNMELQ
Procedure, shortened: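 A custom Agilent array was converted to double-stranded form by primer extension with Cy5-dUTP and blocked with 2% BSA. Protein at 200 nM in PBS with 2% BSA, salmon testes DNA and 50 µM zinc acetate was applied for 1 h at 25 °C, followed by washing. The proteins were polyhistidine–DsRed N-terminal fusions of transcription factors, expressed in E. coli BL21-CodonPlus and Ni–NTA-purified. The binding signal is per-feature fluorescence intensity (arbitrary units) from an Axon 4000B scanner.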

Going from “CCCCTAGTGTTATACAGTTACAACTACACCATCGTAGCACCGGAGTCACCTAGTGCAG” to “TGTGGTGGTGGAGGAGGAGCCCGCCATATTTGACTACGCACGGAGTCACCTAGTGCAG”, the binding signal rises from 3230 fluorescence intensity (a.u.) to 3320 fluorescence intensity (a.u.).

Compared with “CATGTAGAACCCACATGAGTCAATGACATGTAGAACCCACCGGAGTCACCTAGTGCAG”, “TGTTGCGGCCGTGAGACGATCACTGAGTCATTGTCCTCCGCGGAGTCACCTAGTGCAG” is higher in binding signal: 4240 fluorescence intensity (a.u.) for the first, 7950 fluorescence intensity (a.u.) for the second.

First: CACACACAAACTTTCAACTTTTCCGTCACGTCGTTCCAATCGGAGTCACCTAGTGCAG
Second: CGTCGTCGTCGTATGTGCAAATTGTGCATGCGTGGTTGCGCGGAGTCACCTAGTGCAG
The binding signal of the first is lower: 4240 fluorescence intensity (a.u.) for the first, 4630 fluorescence intensity (a.u.) for the second.

Compared with “TCTCGAGCCCCGCACGCCATCATGTCGCCCTCAAGCCCCGCGGAGTCACCTAGTGCAG”, “GGACATCGTCGTTGTCGTTGCGGGCTTGACGTGGACGGCGCGGAGTCACCTAGTGCAG” is higher in binding signal: 4250 fluorescence intensity (a.u.) for the first, 7710 fluorescence intensity (a.u.) for the second.

Compared with “CAACTAATCCCTCCGGGTTGATAATACTTGTCGTTTTGGACGGAGTCACCTAGTGCAG”, “CCCATGGAAATTGTTTAGAATGATGTGGGACCTGTCACATCGGAGTCACCTAGTGCAG” is lower in binding signal: 4640 fluorescence intensity (a.u.) for the first, 4510 fluorescence intensity (a.u.) for the second.

Going from “GAATGAGAGAAGATGACATGTGGACCCCACATGTCAGTTGCGGAGTCACCTAGTGCAG” to “TAAACTAGTACTACTAGTAGCACCCTAAACCCAAATTGATCGGAGTCACCTAGTGCAG”, the binding signal rises from 4120 fluorescence intensity (a.u.) to 16600 fluorescence intensity (a.u.).

Going from “CCTCCATCTATGTCCTGCTGTCCAACATCTACGCGGATGCCGGAGTCACCTAGTGCAG” to “CATCGCCATTGCTGCAGGCTTCTCTCTCTTTCCCTTCTTACGGAGTCACCTAGTGCAG”, the binding signal rises from 3820 fluorescence intensity (a.u.) to 15100 fluorescence intensity (a.u.).

First: TAGACGGGCACCGGCGGCAGCAGAGTCACCTTCCTTTCATCGGAGTCACCTAGTGCAG
Second: TGTTGTTACACTATAATTACACCATAGTTACAAATGTAATCGGAGTCACCTAGTGCAG
The binding signal of the first is lower: 3360 fluorescence intensity (a.u.) for the first, 3380 fluorescence intensity (a.u.) for the second.

Compared with “CCCCACGTGTTAGCTGGGCACGTCATCACCCTCTCCCCTCCGGAGTCACCTAGTGCAG”, “ATCTTGATGATGTCGATCTCGATGTGGACGTGGTCGCCGTCGGAGTCACCTAGTGCAG” is lower in binding signal: 19700 fluorescence intensity (a.u.) for the first, 4150 fluorescence intensity (a.u.) for the second.

First: CGATCAGACGGACACGCAAACCAACCAAATCCCCGCGATCCGGAGTCACCTAGTGCAG
Second: TCCACCTCGCGAGATCGTTAGGTTTCTCACAACCCGGTGGCGGAGTCACCTAGTGCAG
The binding signal of the first is lower: 3210 fluorescence intensity (a.u.) for the first, 4070 fluorescence intensity (a.u.) for the second.

First: ACTTTGAGAGTTCTTCGATTTGTGTTTCATCGGGTTTCGGCGGAGTCACCTAGTGCAG
Second: TAAACGCAGTGGTGATGAGAATGGCACACGCGTACGTGGCCGGAGTCACCTAGTGCAG
The binding signal of the first is lower: 3630 fluorescence intensity (a.u.) for the first, 7530 fluorescence intensity (a.u.) for the second.

Compared with “TTATTAAACACAATATTGCCAAATCATGATGCAATTAGGCCGGAGTCACCTAGTGCAG”, “AATGTCCCCAAGCTTGCCACTCTAGTCATCATCGTGTCGCCGGAGTCACCTAGTGCAG” is higher in binding signal: 4220 fluorescence intensity (a.u.) for the first, 4280 fluorescence intensity (a.u.) for the second.

Compared with “GTCATGTAGATGTAGTGATGTGGACACGCTTGCGATAAAACGGAGTCACCTAGTGCAG”, “CTCCTCGTCCGGATCAGCAGCGGGATTCACAGCAAGTCAGCGGAGTCACCTAGTGCAG” is lower in binding signal: 4120 fluorescence intensity (a.u.) for the first, 3150 fluorescence intensity (a.u.) for the second.

Compared with “AGCTCAGTTTCACAGTTTTCACACATATGTACAATTGACACGGAGTCACCTAGTGCAG”, “CGGCGCTCCCCAACTTCTGCAAGCCACTGCCACGTTTCTGCGGAGTCACCTAGTGCAG” is higher in binding signal: 3700 fluorescence intensity (a.u.) for the first, 10100 fluorescence intensity (a.u.) for the second.

Going from “TCAACGTGCTCATAGCTGCCACATGTGTAGTGCACAAATGCGGAGTCACCTAGTGCAG” to “CCAGGTCAACACCGTCACATAGGTGCCAAGTCAGCGAAACCGGAGTCACCTAGTGCAG”, the binding signal rises from 4210 fluorescence intensity (a.u.) to 11900 fluorescence intensity (a.u.).

Compared with “CAGCATCATCGTGATGCCGTCATTGATTTGCATGAAGGCCCGGAGTCACCTAGTGCAG”, “GGCTGCCGAGCGGCGTGGTGGCGTGCGGCCGTGGTGGTGGCGGAGTCACCTAGTGCAG” is higher in binding signal: 3420 fluorescence intensity (a.u.) for the first, 3550 fluorescence intensity (a.u.) for the second.

Going from “CATGACCGCGGATTTGGGTCTGAGAGGTCATGAGCGAGAGCGGAGTCACCTAGTGCAG” to “CGGTCGACCCACCGTCTGCCACGTCAGCTTGCCGCCCACCCGGAGTCACCTAGTGCAG”, the binding signal rises from 12500 fluorescence intensity (a.u.) to 22800 fluorescence intensity (a.u.).

First: CTGAGGCTCAATACAATGTGTCCCATATTACGCAGTATACCGGAGTCACCTAGTGCAG
Second: GGAGAAACAATATTCGTCATACATTTTGAACCAGATCAAGCGGAGTCACCTAGTGCAG
The binding signal of the first is lower: 3200 fluorescence intensity (a.u.) for the first, 31700 fluorescence intensity (a.u.) for the second.

Going from “ATTATGCAGGTAATATGTAATTTGATAGCTTAATTAATTACGGAGTCACCTAGTGCAG” to “TCATGAAATTAATAGGATGCCACGTCGACTTGGTTGTTCCCGGAGTCACCTAGTGCAG”, the binding signal falls from 33000 fluorescence intensity (a.u.) to 25100 fluorescence intensity (a.u.).

Compared with “ACGACGTGCTTGTCTGACACCCACGCAAGGTGCCCCTCCACGGAGTCACCTAGTGCAG”, “ATCTCGCGGCGCGCTCACGTCCACGCCCTCGCATCCACAACGGAGTCACCTAGTGCAG” is higher in binding signal: 3880 fluorescence intensity (a.u.) for the first, 4310 fluorescence intensity (a.u.) for the second.

Going from “CTCAGATTCTGAACTTAACTACAAATGTGTGATAAGGATACGGAGTCACCTAGTGCAG” to “CGCAACAGCGGTACAGTGTGATACGTGTATGTATACGGTGCGGAGTCACCTAGTGCAG”, the binding signal falls from 13300 fluorescence intensity (a.u.) to 4340 fluorescence intensity (a.u.).

Compared with “TAGTTAATCAGTTGGGAACACACACGTCGGCCGTCTCGTCCGGAGTCACCTAGTGCAG”, “TTCTTCTTGGTGGTGGTGGGGCCTGGAAACTATGTGACTTCGGAGTCACCTAGTGCAG” is lower in binding signal: 5780 fluorescence intensity (a.u.) for the first, 4270 fluorescence intensity (a.u.) for the second.

First: ACATGAAATTTACAACTAGGAATAACTATAAATGACAATTCGGAGTCACCTAGTGCAG
Second: TGCTTGCTGCTGACCAAGCTCTCTTCTTCTCCTCCTCCTCCGGAGTCACCTAGTGCAG
The binding signal of the first is lower: 3400 fluorescence intensity (a.u.) for the first, 4480 fluorescence intensity (a.u.) for the second.

First: GTTCATCTTGCTGATATGCGTTTATTCAATTTTCTTGGTTCGGAGTCACCTAGTGCAG
Second: TGAGAGAGTGGGCCCCACGCGGCAGCGACGCACGCATGATCGGAGTCACCTAGTGCAG
The binding signal of the first is lower: 3370 fluorescence intensity (a.u.) for the first, 4180 fluorescence intensity (a.u.) for the second.

Compared with “CGAGCCTCCAATGGTTGGGTGCAGACGTCACGACCCACCGCGGAGTCACCTAGTGCAG”, “CCTTCTTTGCAGGGAAATTCGTGTGGTAGGTGGCAGGTAGCGGAGTCACCTAGTGCAG” is lower in binding signal: 4980 fluorescence intensity (a.u.) for the first, 3500 fluorescence intensity (a.u.) for the second.

First: CGAGCGACGGCCTCAGCGGCGGCGGCGGCGGCGGCGGTGGCGGAGTCACCTAGTGCAG
Second: GAGGCGAGCTGAGGCCAACCACGGCGGCGGCGGCGAACGACGGAGTCACCTAGTGCAG
The binding signal of the first is higher: 3800 fluorescence intensity (a.u.) for the first, 3700 fluorescence intensity (a.u.) for the second.

Compared with “TCTCCGGCGATCCGGAGCAGGGGCGATGGCGGCGCGGGGCCGGAGTCACCTAGTGCAG”, “GGCTGCGGCGCTGTCCCTCCGTCTGCGTGATCCGACAACCCGGAGTCACCTAGTGCAG” is higher in binding signal: 3370 fluorescence intensity (a.u.) for the first, 3800 fluorescence intensity (a.u.) for the second.
